Laboratory results as given in PubChem BioAssay AID720524 (National Center for Advancing Translational Sciences (NCATS), 2013).
The campaign covered roughly 1,400 compounds. About 1,000 (71%) were called active. The set was probably picked from earlier hits. Inconclusive results, whose numbers are uncertain, are shown with a selection of clear calls. Calls come from the whole dose curve; as a rule, active = well fitted inhibition curve with a large enough effect; inconclusive = small, poorly fitted or top-dose-only effect; inactive = no such curve, though single readings can be large or run the other way. A potency beside an inconclusive call is a rough fit, not a confirmed value.

Test: Nrf2 qHTS screen for inhibitors: Nrf2 A549 ARE-Fluc Confirmation Assay for Hit Validation; note: nearly all actives have a fitted effect of over 65% in size
Settings: A549 ARE-firefly luciferase reporter, luminescence; series mostly up to 46.1 µM
Procedure, shortened: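 Nrf2 inhibition was taken as loss of ARE-driven luciferase luminescence (BugLite) in A549 ARE-Fluc cells after 18-24 h compound exposure at 37C. CellTiter Fluor fluorescence in the same wells gave cytotoxicity; normalization to positive and negative controls.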
Potency is the fitted concentration of half-maximal effect.

Compound	Potency
COc1ccc(N2CCN(C(=O)COc3cccc4ccccc34)CC2)cc1	inactive
CCOC(=O)c1sc2ccccc2c1OC(=O)c1ccccc1OC	inconclusive: 23.1 µM [inhibitor, single point]
Cc1ccc(NC(=O)CN2C(=O)c3cccnc3Sc3ccccc32)cc1C	inactive
Cc1cc[n+](CCC2CCCCC2)c2ccccc12	inconclusive: 2.06 µM [inhibitor, full curve]
Clc1ccc(/C=C/c2ccnc3ccccc23)c(Cl)c1	inconclusive: 5.8 µM [inhibitor, full curve]
Nc1ccc(/C=C/c2nccc3ccccc23)cc1	inconclusive: 2.59 µM [inhibitor, full curve, poor fit]
Cc1ccc(-n2c(-c3ccc(Br)cc3)c[n+]3c2CCc2ccc4cccnc4c2-3)cc1	active: 5.8 µM
Cc1c(/C=C/c2ccnc3ccccc23)ccc(N(C)C)c1C	inconclusive: 20.6 µM [inhibitor, single point]
COc1ccc(OC(C)c2nc3ccccc3[nH]2)cc1 (stereo not drawn)	inactive
CC(=O)Nc1ccccc1OCC(=O)c1cc(C)n(Cc2cccs2)c1C	inactive
CC12CC(c3ccccc3O1)N(C(=O)c1ccco1)C(=S)N2c1ccccc1 (stereo not drawn)	inactive
CCCN(c1ccc(C(C)C)cc1)S(=O)(=O)c1c(C)[nH]c(=O)[nH]c1=O	inactive
CCCOc1ccc(C(=O)Nc2ccc3oc(-c4cccc(Cl)c4Cl)nc3c2)cc1	active: 16.4 µM
Cc1cc(C)c(-c2csc(NC(=O)CCCc3nc4ccccc4c(=O)[nH]3)n2)c(C)c1	inconclusive: 20.6 µM [inhibitor, single point]
COc1ccc(NC(=O)c2cc(S(=O)(=O)N3CCCC3)cn2C)cc1Cl	inactive
COc1ccc(CN(C)Cc2nc(Cc3cccc(F)c3)no2)c2cccnc12	inconclusive: 14.6 µM [inhibitor, partial curve, poor fit]
Cn1c(-c2ccccc2)c[n+]2c1-c1ccccc1C2	active: 1.64 µM

Already shown: entries from further up.
Compound	Potency
COc1ccc(N2CCN(C(=O)COc3cccc4ccccc34)CC2)cc1	inactive
CCOC(=O)c1sc2ccccc2c1OC(=O)c1ccccc1OC	inconclusive: 23.1 µM [inhibitor, single point]

Later entries

Compound	Potency
Cc1ccc(C(=O)NCc2cccc(C(F)(F)F)c2)cc1S(=O)(=O)N1CCCCC1	inconclusive: 5.17 µM [inhibitor, partial curve, poor fit]
CCOC(=O)c1cc2c(=O)n3ccccc3nc2n(CCOC)c1=NC(=O)c1c(-c2c(F)cccc2Cl)noc1C	inconclusive: 29.1 µM [inhibitor, single point]
COc1ncccc1C(=O)N1CCCC(N2CCN(c3cccc(Cl)c3)CC2)C1 (stereo not drawn)	inconclusive: 13 µM [inhibitor, partial curve]
COCCn1c(=O)[nH]c2cc(C(=O)N3CCN(c4ccc(Cl)cc4)CC3)ccc2c1=O	inconclusive: 16.4 µM [inhibitor, single point]
Cc1cc(Nc2ccccc2C(=O)O)n(-c2ccc([N+](=O)[O-])cc2)n1	inconclusive: 2.91 µM [inhibitor, single point]
Nc1cc[n+](CC(=O)c2ccccc2)cc1	inconclusive: 23.1 µM [inhibitor, partial curve]
Cc1ccc(S(=O)(=O)NCc2ccncc2)cc1C	active: 2.06 µM
COc1ccc(Cl)cc1NC(=O)c1cc2c(=O)n3ccccc3nc2s1	active: 23.1 µM
Cc1cc(C)c(C(N)=O)c(SCC(=O)c2cc(C)n(-c3cc(C)on3)c2C)n1	inconclusive: 2.06 µM [inhibitor, full curve]
COc1cccc(C2C=C(c3ccccc3)Nc3c(C(=O)Nc4ccccc4)cnn32)c1OC (stereo not drawn)	inconclusive: 20.6 µM [inhibitor, single point]
O=C(Cn1cnc2ccccc21)Nc1ccc(SC(F)F)cc1	inconclusive: 20.6 µM [inhibitor, single point]
CC(=NNc1ccc2ccccc2n1)c1ccccc1O	inconclusive: 25.9 µM [inhibitor, single point]
Cc1cc(C(=O)O)ccc1-n1c(C)cc(/C=C(/C#N)C(=O)Nc2ccccc2)c1C	inconclusive: 9.2 µM [inhibitor, partial curve]
CCCCCCCCCCCCCCCC[n+]1ccc(/C=C/c2c[nH]c3ccccc23)cc1	active: 7.31 µM
COc1ccc(-c2nc(CN3CCN(c4ncnc5ccccc45)CC3)c(C)o2)c(OC)c1	active: 8.2 µM
CCc1ccc2[nH]c(=O)c(CN(Cc3ccccc3)C(=O)Nc3ccccc3OC)cc2c1	inconclusive: 25.9 µM [inhibitor, single point]
